Data taken from PubChem BioAssay AID445 (National Center for Advancing Translational Sciences (NCATS), 2006).
This is one part of the list. These are further read-outs of the screen, such as a control signal, another cell line or another target. No call is given for them. The list favours compounds with an active or inconclusive main result. Potencies come from curve fits of mixed quality, noted in brackets.

experiment: IkB Signaling; details: ABC-DLBCL IkBa-CBG/CBR dual luciferase ratio (green luciferase fused to IkBa over red control in OCI-Ly3 lymphoma cells), 4 h; measured here: control luc red channel unless noted
Method in brief: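 Luminescence ratio of IκBα-fused green versus native red beetle luciferase in OCI-Ly3 cells, 4 h post-doxycycline with compound; red signal alone, scaled from basal (0%) to zero light (-100%), flagged nonspecific or cytotoxic effects.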

| Structure (SMILES) | AC50 |
| --- | --- |
| COCCN1C(=O)c2[nH]nc(-c3cc(C)ccc3O)c2C1c1ccc(C(C)C)cc1 (configuration not stated) | 39.8 µM [falling, single point] |
| Cc1cccc(N2CCN(C(=O)CCc3c(C)nc4ncnn4c3C)CC2)c1C | 10 µM [falling, partial curve] |
| CCc1ccccc1NC(=O)c1cc(S(=O)(=O)N2CCCC2)cn1C | 39.8 µM [falling, single point] |
| O=C(Cc1ccccc1)Nc1cccc(-c2cn3cccnc3n2)c1 | 6.31 µM [rising, single point] |
| Cc1cccc(C)c1-n1ncc(C(=O)N2CCN(c3ccccc3)CC2)c1C1CCN(C(=O)OC(C)(C)C)CC1 | 15.8 µM [falling, partial curve] |
| O=C(c1ccc(CSc2nc3ccncc3n2Cc2cccc(F)c2)cc1)N1CCCCCC1 | 15.8 µM [falling, partial curve] |
| Cc1cncn1CCc1nc2c3ccccc3nc(SCC(=O)Nc3cccc(Cl)c3)n2n1 | 39.8 µM [falling, single point] |
| O=c1c(Cc2ccccc2O)c(O)nc2n1CCCS2 | 5.01 µM [falling, partial curve] |
| CN(C(=O)CSc1cn(CC(=O)N2CCOCC2)c2ccccc12)c1ccccc1 | 39.8 µM [falling, single point] |
| Cn1c(C(=O)Nc2ccc3c(c2)OCCO3)cc2sccc21 | 31.6 µM [falling, single point] |
| CCCN(C(=O)c1noc2c1COc1ccc(C)cc1-2)c1ccc(Cl)c(Cl)c1 | 0.01 µM [rising, full curve, poor fit] |
| COc1cc(NC(=O)CC2C(=O)N(c3cccc(C)c3)C(=O)N2Cc2ccc(F)cc2)cc(OC)c1 (configuration not stated) | 5.01 µM [falling, partial curve] |
| CC1=C(C#N)C(c2cn(-c3ccccc3)nc2-c2cccs2)C(C#N)=C(C)N1 | 20 µM [falling, partial curve] |
| COc1cc(NS(=O)(=O)c2ccc3[nH]c4c(c3c2)CCCCCC4)cc(OC)c1 | 25.1 µM [falling, single point] |
| CCc1ccc(NC(=O)C(CC)n2c(=O)c(C(F)(F)F)nc3ccccc32)cc1 (configuration not stated) | 25.1 µM [falling, partial curve, poor fit] |
| Cc1nc2nc(SCC(=O)NCc3ccccc3Cl)nn2c(C)c1Cc1ccccc1 | 15.8 µM [falling, partial curve] |
| CCOC(=O)Cn1c(=O)c2c(nc3n2CCN3c2ccc(CC)cc2)n(C)c1=O | 12.6 µM [falling, partial curve] |
| Cc1ccc(-c2nnc(Nc3ccc(O)cc3)c3ccccc23)cc1S(=O)(=O)N1CCOCC1 | 6.31 µM [falling, partial curve] |
| COc1ccc(-c2cc(C(=O)Nc3c(C)nn(Cc4ccc(C)cc4)c3C)no2)cc1OC | 20 µM [falling, single point] |
| COc1cccc(NS(=O)(=O)c2ccc(-c3cc(C)no3)s2)c1 | 39.8 µM [rising, single point] |
| Cc1ccc(NC(=O)CSc2cn(CC(=O)N3CCCCCC3)c3ccccc23)cc1 | 10 µM [falling, partial curve] |

| Structure (SMILES) | AC50 |
| --- | --- |
| Cc1cccc(N2CCN(C(=O)c3cnn(-c4cccc(Cl)c4C)c3C3CCNCC3)CC2)c1C | 39.8 µM [falling, partial curve, poor fit] |
| O=C(NCC(c1cccnc1)N1CCc2ccccc2C1)C(=O)Nc1ccc(Cl)cc1 (configuration not stated) | 5.01 µM [falling, partial curve] |
| Cc1ccc(-c2noc(CSc3nnc(Cc4ccccc4)n3-c3cccc(C)c3)n2)cc1 | 15.8 µM [falling, partial curve] |
| CCCc1nc2ccccc2n2c(-c3ccc(C)cc3)c3c(=O)n(C)c(=O)n(C)c3c12 | 25.1 µM [falling, partial curve] |
| CC(C)c1ccc(NC(=O)c2cccc3c2C(=O)N(C2CCCCC2)C3)cc1 | 2.51 µM [falling, full curve] |
| CC(=O)c1cccc(NC(=O)c2c(N3CCCC3=O)c3cc(F)ccc3n2C)c1 | 31.6 µM [falling, single point] |
| CCOCCCNC(=O)C(c1ccc(C)cc1)N(Cc1cccs1)C(=O)c1ccc(NC(C)=O)cc1 (configuration not stated) | 10 µM [falling, partial curve] |
| CCSc1ncc(Cl)c(C(=O)Nc2c(C(=O)c3ccc(C)c(F)c3)oc3ccccc23)n1 | 0.126 µM [rising, partial curve, poor fit] |
| CCN(CC)C(=O)c1sc2c(c1C)c(=O)n(Cc1ccccc1)c(=O)n2Cc1ccc(Cl)cc1 | 12.6 µM [falling, partial curve, poor fit] |
| O=C(CCS(=O)(=O)c1nc(-c2ccc3c(c2)OCO3)cc(C(F)(F)F)n1)Nc1ccccc1F | 12.6 µM [falling, partial curve] |
| O=c1oc2ccccc2c(O)c1CN1CCCCC1 | 0.0794 µM [falling, full curve] |
| CCc1cccc(-n2nnc(-c3nc(-c4ccccc4Cl)no3)c2N)c1 | 0.02 µM [rising, full curve] |
| O=C(CSc1nc2c(c(=O)[nH]1)CN(Cc1ccc3c(c1)OCO3)CC2)Nc1cccc(Cl)c1 | 25.1 µM [falling, single point] |
| CS(=O)(=O)c1ncc(Cl)c(C(=O)Nc2ccc(N3CCOCC3)cc2)n1 | 3.16 µM [falling, full curve] |
| Cn1nnc2c(NCc3ccccc3Cl)ncnc21 | 39.8 µM [falling, single point] |
| COc1ccccc1-n1cnc2cc(NS(=O)(=O)c3ccccc3)ccc21 | 31.6 µM [falling, single point] |
| Cc1nc2c(c(C)nn2-c2ccccc2)c(C)c1CCC(=O)NCCc1ccccc1 | 5.01 µM [falling, full curve, poor fit] |
| COc1ccc(CC(=O)NCc2nc3cccnc3n2Cc2ccc(C)cc2)cc1OC | 6.31 µM [rising, partial curve] |
| Cc1cccc(Cn2cc3c(=O)n(CC(=O)Nc4ccc(C)c(F)c4)nc-3c3cc(F)ccc32)c1 | 20 µM [falling, single point] |
| COc1ccc(S(=O)(=O)N(Cc2ccccc2)Cc2nc3ccccc3c(=O)[nH]2)cc1 | 39.8 µM [falling, single point] |
| CCc1cccc(NS(=O)(=O)c2c(C)nc3sc(CC)nn3c2=O)c1 | 31.6 µM [falling, single point] |

A draw from above in order of molecular weight, low to high:

| Structure (SMILES) | AC50 |
| --- | --- |
| Cn1nnc2c(NCc3ccccc3Cl)ncnc21 | 39.8 µM [falling, single point] |
| CS(=O)(=O)c1ncc(Cl)c(C(=O)Nc2ccc(N3CCOCC3)cc2)n1 | 3.16 µM [falling, full curve] |
| CCSc1ncc(Cl)c(C(=O)Nc2c(C(=O)c3ccc(C)c(F)c3)oc3ccccc23)n1 | 0.126 µM [rising, partial curve, poor fit] |

Additional records follow:

| Structure (SMILES) | AC50 |
| --- | --- |
| COc1ccc(S(=O)(=O)Cc2ccc(C(=O)N3CCN(c4cccc(C)c4)C(C)C3)o2)cc1 (configuration not stated) | 25.1 µM [falling, partial curve] |
| Cc1ccc(NC(=O)Cn2c(=O)n(CCc3ccccc3)c(=O)c3c4c(sc32)CCCC4)c(C)c1 | 39.8 µM [falling, single point] |
| Cc1ccc(N2CC(NC(=O)c3ccc(S(=O)(=O)N4CCCCC4)cc3)CC2=O)cc1 (configuration not stated) | 6.31 µM [falling, single point] |
| COC(=O)c1ccc(NC(=O)c2cc(=O)c3ccc(C)cc3o2)cc1 | 0.00631 µM [rising, full curve] |
| CCCCn1c(=O)n(Cc2cccc(F)c2)c(=O)c2c1ncn2Cc1ccco1 | 39.8 µM [falling, single point] |
| CCOc1ccc(-c2nonc2NC(=O)c2oc3ccc(Br)cc3c2C)cc1 | 2 µM [falling, full curve] |
| Cc1ccc(N2CC(NC(=O)Cc3cccs3)CC2=O)cc1C (configuration not stated) | 6.31 µM [rising, single point] |
| CCOC(=O)N1CCc2c(sc(NCc3cccc(F)c3)c2C(=O)Nc2ccccc2OCC)C1 | 15.8 µM [falling, single point] |
| CCCCOc1ccccc1C1C(C(=O)OC)=CN(CC)C=C1C(=O)OC | 12.6 µM [falling, partial curve] |
| COc1ccc2c(c1)CCc1c(C(=O)Nc3ccc(F)c(Cl)c3)noc1-2 | 0.0631 µM [falling, full curve] |
| CCc1nc2ccc(C(=O)N3CCN(c4ccccc4)CC3)cc2nc1CC | 3.16 µM [rising, partial curve, poor fit] |
| Cc1ccc(CNC(=O)c2cc3c(s2)-c2ccccc2SC3)cc1 | 10 µM [falling, partial curve] |
| COc1ccc(Cl)cc1NC(=O)CCS(=O)(=O)c1nc(-c2cccs2)cc(C(F)(F)F)n1 | 3.16 µM [falling, full curve] |
| CC(C)COc1ccc(C(=O)Nc2cccc(-c3nc4ccccc4[nH]3)c2)cc1 | 15.8 µM [falling, partial curve] |
| COc1ccccc1-c1cc2nc(C)c(CCC(=O)Nc3ccc(Br)c(C)c3)c(C)n2n1 | 1 µM [falling, full curve] |
| CCOc1ccc2[nH]c(=O)c(CN(Cc3ccco3)C(CC)c3nnnn3Cc3ccccc3)cc2c1 (configuration not stated) | 25.1 µM [falling, partial curve] |
| CC(C)N(C(=O)CSc1nc2ccc(Cl)cc2[nH]1)c1ccccc1 | 15.8 µM [falling, partial curve] |
| COc1ccccc1CNC(=O)CCC1N=C2c3ccccc3N=C(SCc3cccc(Cl)c3)N2C1=O (configuration not stated) | 20 µM [falling, partial curve] |
| O=C(Nc1ccccc1C(=O)O)c1cccc(NC(=O)c2ccc(Br)o2)c1 | 15.8 µM [falling, partial curve] |
| COc1ccc(-c2cc3nc(-c4ccc(C)cc4)cc(C(F)(F)F)n3n2)cc1 | 0.01 µM [rising, full curve, poor fit] |
